# Results: PubChem BioAssay AID493014 (National Center for Advancing Translational Sciences (NCATS), 2011)
# Among all 340,000 compounds or so, about 170 (0.05%) were called active. This list was built around the results that the source calls inconclusive (neither active nor inactive); the mix of calls is not that of the screen. Calls follow the shape of the dose curve; as a rule, active = well fitted inhibition curve with a large enough effect in the signal ratio, with a control signal flat (not every such curve was filed as active); inconclusive = small, poorly fitted or top-dose-only effect, or effect the other way, or a change in a side signal; inactive = flat fitted curve, though single readings scatter; the % refers to the signal ratio. Where the call is inconclusive, the potency comes from a doubtful curve fit.
# Experiment: qHTS Assay to Find Inhibitors of Chronic Active B-Cell Receptor Signaling;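 as to activity change, negative = inhibition: plate controls were basal doxycycline-induced cells for no effect and cells given 10 µM MG132 for full effect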
# Conditions: ABC-DLBCL IkBa-CBG/CBR reporter, luminescence ratio (green luciferase fused to IkBa over red control in TMD8 lymphoma cells), 4 h; activity change, negative = inhibition: at 46.1 µM (top of the series) unless noted
# In short: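 TMD8 human ABC-DLBCL cells with doxycycline-inducible IκBα–green luciferase fusion and unfused red luciferase, in 0.5% FBS medium; compounds up to 46 uM, 4 h at 37C. Green/red luminescence ratio, filter-overlap corrected, fitted to concentration-response curves.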
# Potency is read from the fitted curve at half-maximal effect.
SMILES,"activity change, negative = inhibition",Potency
CC(C)=NN1C(=O)c2ccccc2NC1(C)C,inconclusive: -17.6%,–
O=C(CSc1nnc(Nc2ccccc2)s1)Nc1ccc(S(=O)(=O)N2CCOCC2)cc1,inconclusive: -5.18%,–
COc1ccccc1/C=N/NC(=O)c1ccc(NC(=O)c2ccccc2Br)cc1,inconclusive: 4.6%,–
C=CCn1c(C(C)NC(=O)CC)nc2ccccc21 (stereo not drawn),inconclusive: -2.04%,–
O=c1oc2cc([N+](=O)[O-])ccc2nc1/C=C(\O)c1cccc(Br)c1,inactive: 6.38%,–
CCOc1cc(CNc2ccc3cn[nH]c3c2)ccc1OC,–,"inconclusive: 16.4 µM [rising, partial curve, poor fit]"
COc1cc(NC(=O)c2ccc3snnc3c2)cc(OC)c1,–,"inconclusive: 7.08 µM [falling, full curve]"
Cc1cc(C(=O)N/N=C/c2ccc(Cl)c([N+](=O)[O-])c2)c(C)n1-c1ccc(F)cc1,–,"inconclusive: 29.1 µM [falling, single point]"
O=C1C(=O)N(CCCc2ccccc2)c2ccccc21,inconclusive: 7.69%,–
Cc1ccc(C)n1-c1ccc(C(=O)NN=C2CCCC2)cc1,–,"inconclusive: 7.08 µM [falling, partial curve]"
N#C/C(=C\c1cccs1)C(=O)Nc1ccccn1,–,"inconclusive: 35.5 µM [rising, single point]"
c1ccc(CN=C2NN=C(c3cc4ccccc4o3)CS2)cc1,inactive: -5.01%,–
CC(C)(C)c1ccc(Cn2nnc3c(=O)[nH]c(C4CCN(C(=O)Cc5cccs5)CC4)nc32)cc1,inconclusive: -8.02%,–
O=C1S/C(=C\C=C\c2ccco2)C(=O)N1c1ccccc1,inconclusive: -7.51%,–
Cc1ccccc1Cn1cc(NC(=O)COc2ccccc2)cn1,inconclusive: 1.85%,–
O=C1NC(=Nc2ccccc2Cl)S/C1=C\c1cccc([N+](=O)[O-])c1O,inconclusive: 1.16%,–
Cc1cc(=O)oc2cc(OCc3ccc(C(=O)OCC(=O)N(C)C4CCS(=O)(=O)C4)cc3)ccc12 (stereo not drawn),–,"inconclusive: 20 µM [falling, partial curve, poor fit]"
O=C(NNC(=O)c1ccco1)c1ccccc1,inconclusive: 0.426%,–
CCOc1ccc(CCNC(=O)C(CC)n2nc(C)n3c(cc4sccc43)c2=O)cc1OCC (stereo not drawn),inconclusive: 3.92%,–
COc1ccc(NC(=O)C(OC(=O)c2cnccn2)c2ccccc2)cc1Cl (stereo not drawn),–,"inconclusive: 14.1 µM [falling, single point]"
Cc1cccc(CSCc2ccc(C(=O)NC3CCCC3)o2)c1,–,"inconclusive: 35.5 µM [rising, partial curve, poor fit]"
CC(C)Cn1c(-c2cccs2)nc2nc3ccccc3nc21,inactive: 10.8%,–
Cc1cccc(NC2=NC(C)(C)N=C(N)N2)c1,–,"inconclusive: 6.31 µM [falling, single point]"
Cc1cc(NC(=O)Nc2ccc(F)c(Cl)c2)no1,inactive: -2.67%,–
CCN(CC)C(=O)c1sc2c(c1C)c(=O)n(CCc1ccccc1)c(=O)n2Cc1cc(C)ccc1C,inactive: -3.37%,–
Cn1nnnc1SCc1ccc(CSc2nnnn2C)cc1,inconclusive: 6.49%,–

# Arranged by count of non-hydrogen atoms (ascending): some entries from above
SMILES,"activity change, negative = inhibition",Potency
O=C(NNC(=O)c1ccco1)c1ccccc1,inconclusive: 0.426%,–
N#C/C(=C\c1cccs1)C(=O)Nc1ccccn1,–,"inconclusive: 35.5 µM [rising, single point]"
C=CCn1c(C(C)NC(=O)CC)nc2ccccc21 (stereo not drawn),inconclusive: -2.04%,–
O=C1C(=O)N(CCCc2ccccc2)c2ccccc21,inconclusive: 7.69%,–
O=C1S/C(=C\C=C\c2ccco2)C(=O)N1c1ccccc1,inconclusive: -7.51%,–
Cc1ccc(C)n1-c1ccc(C(=O)NN=C2CCCC2)cc1,–,"inconclusive: 7.08 µM [falling, partial curve]"
c1ccc(CN=C2NN=C(c3cc4ccccc4o3)CS2)cc1,inactive: -5.01%,–
O=c1oc2cc([N+](=O)[O-])ccc2nc1/C=C(\O)c1cccc(Br)c1,inactive: 6.38%,–
O=C1NC(=Nc2ccccc2Cl)S/C1=C\c1cccc([N+](=O)[O-])c1O,inconclusive: 1.16%,–
COc1ccc(NC(=O)C(OC(=O)c2cnccn2)c2ccccc2)cc1Cl (stereo not drawn),–,"inconclusive: 14.1 µM [falling, single point]"
Cc1cc(C(=O)N/N=C/c2ccc(Cl)c([N+](=O)[O-])c2)c(C)n1-c1ccc(F)cc1,–,"inconclusive: 29.1 µM [falling, single point]"
O=C(CSc1nnc(Nc2ccccc2)s1)Nc1ccc(S(=O)(=O)N2CCOCC2)cc1,inconclusive: -5.18%,–
CC(C)(C)c1ccc(Cn2nnc3c(=O)[nH]c(C4CCN(C(=O)Cc5cccs5)CC4)nc32)cc1,inconclusive: -8.02%,–
CCN(CC)C(=O)c1sc2c(c1C)c(=O)n(CCc1ccccc1)c(=O)n2Cc1cc(C)ccc1C,inactive: -3.37%,–

# (listing goes on)

SMILES,"activity change, negative = inhibition",Potency
COc1cccc(N2CCN(C(=O)c3cc4c(s3)-c3ccccc3OC4)CC2)c1,–,"inconclusive: 12.6 µM [falling, single point]"
COc1cc2c3nnc(-c4ccc(F)cc4)c-3cn(Cc3ccc(F)cc3)c2cc1OC,–,"inconclusive: 9.2 µM [rising, partial curve, poor fit]"
O=C(Cc1ccccc1F)Nc1nc2ccccc2[nH]1,inconclusive: -1.01%,–
COC(=O)c1ccc(NC(=S)N2CCC(C(N)=O)CC2)cc1,inconclusive: -21.9%,–
Cc1nc(NC(=O)C2CC2)sc1C(=O)Nc1ccccc1,–,"inconclusive: 20 µM [falling, partial curve, poor fit]"
COc1ccc(CNC(=O)COC(=O)CCOc2ccccc2)cc1,inconclusive: 2.51%,–
COC1=CC(=O)CC(C)C12Oc1c(Cl)c(OC)cc(OC)c1C2=O (stereo not drawn),inconclusive: -17.5%,–
O=C(c1cccs1)N1CCN(c2nc3ccccc3s2)CC1,inconclusive: -6.28%,–
Cc1cccc(C)c1NC(=O)CNC(=O)CCCN1C(=O)c2cccc3cccc(c23)C1=O,inconclusive: 12.3%,–
Cc1ccc(S(=O)(=O)N2CCC(C(=O)N3CCc4ccccc43)CC2)cc1,inactive: 7.17%,–
COc1ccc(Cl)cc1C(Nc1cccnc1)c1ccc2cccnc2c1O (stereo not drawn),–,"inconclusive: 22.4 µM [falling, single point]"
CS(=O)(=O)Nc1cccc(C(=O)CC2(O)C(=O)Nc3ccc(Br)cc32)c1 (stereo not drawn),–,"inconclusive: 25.1 µM [falling, single point]"
CN1C(=O)c2ccccc2Sc2ccc(NC(=O)c3ccc(C(F)(F)F)cc3)cc21,–,"inconclusive: 3.16 µM [falling, partial curve, poor fit]"
COc1cc(C2/C(=C(\O)c3ccc4c(c3)OCCO4)C(=O)C(=O)N2Cc2ccco2)ccc1O (stereo not drawn),inactive: -0.328%,–
Nc1ccccc1SCC(=O)Nc1nc(-c2ccccc2)cs1,inconclusive: -4.19%,–
CCCc1nnc(NC(=O)CSc2ncn[nH]2)s1,–,"inconclusive: 17.8 µM [falling, single point]"
O=C(/C=C/c1c[nH]c2ccccc12)c1cccc2ccccc12,–,"inconclusive: 3.55 µM [falling, partial curve, poor fit]"
CC(=O)NS(=O)(=O)c1ccc(N=c2ssc3c2-c2ccc(C)cc2NC3(C)C)cc1,inconclusive: 9.85%,–
Cc1ccc(S(=O)(=O)CC(=O)N2CCN(c3nc4c(F)cccc4s3)CC2)cc1,inactive: -2.46%,–
CCOC(=O)N1CCN(Cc2cn[nH]c2-c2cc3ccccc3o2)CC1,–,"inconclusive: 35.5 µM [rising, single point]"
CCn1ncc(Br)c1C(=O)Nc1cccc(F)c1,inactive: 7.16%,–
Cc1nc2c([nH]c3ccc(Br)cc32)s1,inconclusive: 3.33%,–
CC1CCCC(C)N1/N=C/c1ccc([N+](=O)[O-])cc1 (stereo not drawn),inconclusive: 6.66%,–
CCN(Cc1nc2ccccc2c(=O)[nH]1)Cc1nc2ccsc2c(=O)[nH]1,–,"inconclusive: 20 µM [cytotoxic, partial curve]"
COc1ccc(/C=N/NC(=O)CCC(=O)Nc2ccc(F)cc2)c(OC)c1,inactive: -5.37%,–
CCC(=O)Nc1nc2ccccc2n1Cc1ccc(Cl)cc1,–,"inconclusive: 7.08 µM [falling, full curve, poor fit]"

SMILES,"activity change, negative = inhibition",Potency
COc1ccc2c(c1)sc(N)[n+]2Cc1cc(C)cc2cccnc12,–,"inconclusive: 29.1 µM [falling, single point]"
CCc1ccc(C(C)(O)C(CN2CCOCC2)c2ccccc2)cc1 (stereo not drawn),inactive: -1.1%,–
O=C1C(Nc2ccccc2)=C/C(=N/S(=O)(=O)c2cccs2)c2ccccc21,inconclusive: 4.67%,–
CC(=O)N=C1SC2CS(=O)(=O)CC2N1c1ccc(-c2nc3ccc(C)cc3s2)cc1 (stereo not drawn),inconclusive: 10.6%,–
COc1ccccc1C(=O)Nc1ccc(N2CCCCC2)cc1,–,"inconclusive: 29.1 µM [falling, single point]"
CCOc1cc(C)c(C(C)C)cc1S(=O)(=O)N1CC(C)OC(C)C1 (stereo not drawn),inactive: -5.95%,–
Cc1ccc(-c2ccc(=O)n(CCC(=O)NCCc3ccccc3)n2)cc1,inconclusive: 6.8%,–
O=C(NCCc1ccc(F)cc1)Nc1ccc([N+](=O)[O-])cc1,inactive: 7.05%,–
CCOC(=O)C1CCN(S(=O)(=O)c2ccc3c4c(cccc24)C(=O)N3)CC1,inconclusive: -11.4%,–
COCCN(Cc1ccc(F)cc1)C(=O)c1cc2ccccc2oc1=O,inconclusive: 16.2%,–
Cc1ccc(C(=O)O/N=C\c2ccc(N3CCCCC3)c([N+](=O)[O-])c2)cc1,inactive: -1.88%,–
COc1ccc(Cl)cc1-c1n[nH]c(=S)n1C1CCCCC1,inactive: 10.4%,–
Cc1ccc(NCc2ccc(O)c3ncccc23)cc1C,–,"inconclusive: 35.5 µM [falling, single point]"
COc1ccc(OC)c(C(=O)N2CCC(CCC(=O)NC3CC3)CC2)c1,inconclusive: -1.7%,–
CC(C)(C)c1csc(Sc2ncccc2[N+](=O)[O-])n1,inconclusive: 7.4%,–
Cc1ccccc1N1CCN(C(=O)c2ccc(Oc3ccc(C(F)(F)F)cn3)cc2)CC1,–,"inconclusive: 11.6 µM [rising, partial curve, poor fit]"
COc1cccc(-c2nc3ccc(C(=O)NC(C)Cc4cccnc4)cc3o2)c1 (stereo not drawn),inconclusive: -0.995%,–
COc1ccc(-c2nc3scc(CCNS(=O)(=O)c4ccc(F)cc4C)n3n2)cc1,inconclusive: -5.36%,–
S=c1[nH]nc(C2CCCCC2)n1/N=C/c1ccc(Cl)cc1,inconclusive: 5.45%,–
COc1cccc(C(=O)Nc2ccc(NC(=O)C3CC3)nc2)c1,–,"inconclusive: 10 µM [falling, partial curve]"
COc1ccc(Nc2cc3n(c(=O)n2)CCc2cc(OC)c(OC)cc2-3)cc1,–,"inconclusive: 35.5 µM [falling, single point]"
CCc1nnc(NC(=O)CSc2nnc(C)n2CC2CCCO2)s1 (stereo not drawn),inconclusive: 19%,–
Cc1cc2oc(=O)cc(Cn3ncc(Cl)c(Cl)c3=O)c2cc1Cl,inconclusive: -5.42%,–
O=C(Nc1cccc(-c2nc3ccccc3[nH]2)c1)c1ccco1,inconclusive: 0.667%,–
CCS(=O)(=O)N1CCN(C(=O)c2ccc(-c3ccccc3)cc2)CC1,inconclusive: -0.666%,–
Cc1ccc(C(=O)NCCn2cc(SCC(=O)Nc3nnc(C)s3)c3ccccc32)cc1,–,"inconclusive: 32.6 µM [falling, single point]"
